Measurements reported in PubChem BioAssay AID686938 (Drosophila RNAi Screening Center, 2013).
The deposit covers about 23,000 reagents; this is a random part of those with a known target gene and a result. Of all reagents, 75 (0.33%) are marked active. 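Raw plate signals without normalisation; calls rest on plate z-scores that were not deposited; ratio present for only 364 wells.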 Entries without a mark were called inactive. Names joined by + are all predicted targets of the reagent. Not stated in the record: the dose of the treatment.

Assay: 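Fly genes required for calcium entry once internal stores are emptied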 (primary screen)
Cell system: Drosophila S2R+ cells
Reagent: long dsRNA against Drosophila genes, about 0.25 µg dsRNA per well, roughly 10,000 cells
Timing: 5 days of knock-down before the calcium assay
Challenge: thapsigargin (SERCA pump blocker) to empty calcium stores; entry signal taken 4 min after adding it
Measured: 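Per-well fluo-4 fluorescence in two replicates, unnormalised, measured in resting cells and 4 min after store depletion by the SERCA blocker thapsigargin; ratio of the two present in few wells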
Scale: calcium entry signal: higher = stronger calcium signal after store depletion; resting calcium signal: higher = higher resting calcium signal
Hit rule: 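Called when the plate z-score of the entry-to-rest ratio, mean of duplicates, falls below −3; wells with low overall dye signal (Fmax z below −2) or more than five off-targets excluded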
Calls: active = strongly reduced calcium entry; inactive = no strong reduction

gene | dsRNA | calcium entry signal, replicate 1 (fluorescence units) | calcium entry signal, replicate 2 (fluorescence units) | resting calcium signal, replicate 1 (fluorescence units) | resting calcium signal, replicate 2 (fluorescence units)
VhaM9.7-d (GeneID 42041) | DRSC15028 | 2.99e7 | 5.13e7 | 1.44e7 | 6.46e7
Mi-2 (GeneID 40170) | DRSC11222 | 2.69e7 | 3.20e7 | 1.30e7 | 1.47e7
CG11601 (GeneID 33197) | DRSC00318 | 4.63e7 | 4.47e7 | 2.07e7 | 1.92e7
CoRest (GeneID 32941) | DRSC19881 | 3.13e7 | 3.75e7 | 1.50e7 | 1.71e7
CoRest (GeneID 32941) | DRSC21626 | 3.81e7 | 3.92e7 | 2.09e7 | 1.90e7
CoRest (GeneID 32941) | DRSC22305 | 2.91e7 | 2.98e7 | 1.40e7 | 1.74e7
CG42824 (GeneID 10178873) | DRSC13230 | 5.30e7 | 2.60e7 | 2.24e7 | 1.28e7
Tab2 (GeneID 37216) | DRSC07481 | 4.52e7 | 3.84e7 | 2.13e7 | 1.92e7
CG10140 (GeneID 39511) | DRSC09704 | 3.07e7 | 3.61e7 | 1.62e7 | 1.74e7
Tango1 (GeneID 33930) | DRSC02127 | 3.47e7 | – | 2.20e7 | –
CG10939 (GeneID 44155) | DRSC06019 | 2.31e7 | 2.10e7 | 1.09e7 | 9.78e6
CG10939 (GeneID 44155) | DRSC21734 | 2.94e7 | 3.25e7 | 1.49e7 | 1.48e7
hng3 (GeneID 38090) | DRSC08367 | 3.66e7 | 3.69e7 | 1.87e7 | 1.79e7
Tmlh (GeneID 42421) | DRSC15563 | 3.61e7 | 4.54e7 | 5.63e7 | 2.02e7
lectin-30A (GeneID 53541) | DRSC02560 | 2.99e7 | 4.67e7 | 1.41e7 | 2.05e7
tkv + CR14033 + tRNA:Asp-GTC-2-1 + 1 more | DRSC00861 | 3.45e7 | 4.24e7 | 2.14e7 | 2.03e7
CG13028 (GeneID 2768967) | DRSC09908 | 3.88e7 | 6.52e7 | 1.90e7 | 2.35e7
CG17154 (GeneID 39373) | DRSC10253 | 3.38e7 | 4.31e7 | 1.68e7 | 1.87e7
Rrp1 (GeneID 33500) | DRSC00784 | 2.41e7 | 3.86e7 | 1.19e7 | 1.98e7
Lmx1a (GeneID 39406) | DRSC09726 | 3.45e7 | 5.08e7 | 1.88e7 | 2.42e7
Lmx1a (GeneID 39406) | DRSC10275 | 2.58e7 | 4.41e7 | 1.51e7 | 2.22e7
CG12643 (GeneID 50416) | DRSC17849 | 4.05e7 | 3.84e7 | 1.83e7 | 1.72e7
CG33281 (GeneID 2768938) | DRSC00421 | 2.59e7 | 2.87e7 | 1.34e7 | 1.47e7
Mtp (GeneID 35362) | DRSC03216 | 3.35e7 | – | 1.58e7 | –
CG7304 (GeneID 39713) | DRSC10804 | 3.51e7 | 5.12e7 | 1.76e7 | 2.22e7
beta3GalTII (GeneID 35848) | DRSC07253 | 4.84e7 | 4.42e7 | 2.27e7 | 1.68e7
Cyp4d8 (GeneID 38841) | DRSC11131 | 4.40e7 | 3.42e7 | 2.96e7 | 1.59e7
Spred (GeneID 36643) | DRSC05976 | 4.33e7 | 4.36e7 | 1.84e7 | 2.09e7
Ugt36E1 (GeneID 35139) | DRSC02599 | 6.30e7 | – | 2.93e7 | –
GPHR (GeneID 36682) | DRSC07075 | 3.25e7 | 4.06e7 | 1.58e7 | 2.04e7
Tsr1 (GeneID 40360) | DRSC11821 | 2.51e7 | 3.08e7 | 1.33e7 | 1.91e7
CG14563 (GeneID 40435) | DRSC11724 | 3.46e7 | 6.39e7 | 1.62e7 | 2.31e7
CG42335 (GeneID 42558) | DRSC14597 | 3.49e7 | 4.83e7 | 5.71e7 | 1.99e7
CG42335 (GeneID 42558) | DRSC15892 | 3.96e7 | 4.43e7 | 4.85e7 | 1.95e7
dor (GeneID 31118) | DRSC18765 | 4.28e7 | 4.74e7 | 1.91e7 | 2.36e7
CR32821 + CR43381 + CR43377 + 1 more | DRSC22544 | 2.97e7 | 3.38e7 | 1.49e7 | 1.44e7
mal (GeneID 33045) | DRSC20581 | 2.72e7 | 2.88e7 | 1.50e7 | 1.33e7
CG11997 (GeneID 41093) | DRSC14464 | 4.50e7 | 4.64e7 | 2.10e7 | 2.28e7
CG11155 (GeneID 43822) | DRSC17184 | 4.03e7 | 4.45e7 | 2.06e7 | 1.80e7
CG11155 (GeneID 43822) | DRSC17205 | 3.56e7 | 3.92e7 | 1.62e7 | 1.81e7
otk2 (GeneID 36284) | DRSC07303 | 3.46e7 | 3.54e7 | 1.78e7 | 1.61e7
CG11162 (GeneID 32325) | DRSC19391 | 3.80e7 | 3.50e7 | 1.89e7 | 1.58e7
CG11162 (GeneID 32325) | DRSC22538 | 1.97e7 | 2.90e7 | 1.15e7 | 1.23e7
CG18094 (GeneID 35232) | DRSC02655 | 4.82e7 | 4.83e7 | 2.39e7 | 2.15e7
CG10317 (GeneID 41987) | DRSC14229 | 3.92e7 | 4.05e7 | 1.87e7 | 7.57e7
Ccp84Ag (GeneID 40819) | DRSC12592 | 4.58e7 | 2.89e7 | 2.08e7 | 1.39e7
Ccp84Ag (GeneID 40819) | DRSC22085 | 4.28e7 | 4.20e7 | 2.66e7 | 2.06e7
CG32095 (GeneID 317849) | DRSC22615 | 4.74e7 | 3.53e7 | 2.73e7 | 1.69e7
unc-13-4A (GeneID 38801) | DRSC10201 | 2.56e7 | 3.67e7 | 1.27e7 | 1.78e7
unc-13-4A (GeneID 38801) | DRSC10202 | 2.50e7 | 3.66e7 | 1.21e7 | 1.70e7
unc-13-4A (GeneID 38801) | DRSC10203 | 1.43e7 | 1.93e7 | 9.59e6 | 1.28e7
unc-13-4A (GeneID 38801) | DRSC11013 | 2.69e7 | 3.95e7 | 1.21e7 | 1.73e7
CG18011 (GeneID 36068) | DRSC06697 | 4.21e7 | 3.85e7 | 1.74e7 | 1.81e7
CG18011 (GeneID 36068) | DRSC06706 | 2.55e7 | 3.09e7 | 1.17e7 | 1.30e7
CG1607 (GeneID 43707) | DRSC15130 | 1.95e7 | 2.31e7 | 1.02e7 | 1.21e7
CG15260 (GeneID 34899) | DRSC01977 | 3.42e7 | 2.53e7 | 1.70e7 | 1.32e7
Cyp313a3 (GeneID 41488) | DRSC16626 | 4.01e7 | 2.79e7 | 2.04e7 | 1.50e7
mute (GeneID 2768848) | DRSC06562 | 2.71e7 | 1.99e7 | 1.63e7 | 1.14e7
mute (GeneID 2768848) | DRSC22931 | 2.23e7 | 1.98e7 | 1.38e7 | 1.17e7

Records above whose target name begins with M or m:
gene | dsRNA | calcium entry signal, replicate 1 (fluorescence units) | calcium entry signal, replicate 2 (fluorescence units) | resting calcium signal, replicate 1 (fluorescence units) | resting calcium signal, replicate 2 (fluorescence units)
Mi-2 (GeneID 40170) | DRSC11222 | 2.69e7 | 3.20e7 | 1.30e7 | 1.47e7
Mtp (GeneID 35362) | DRSC03216 | 3.35e7 | – | 1.58e7 | –
mal (GeneID 33045) | DRSC20581 | 2.72e7 | 2.88e7 | 1.50e7 | 1.33e7
mute (GeneID 2768848) | DRSC06562 | 2.71e7 | 1.99e7 | 1.63e7 | 1.14e7
mute (GeneID 2768848) | DRSC22931 | 2.23e7 | 1.98e7 | 1.38e7 | 1.17e7
